These results are taken from PMC8934646.

First the molecules themselves.
B1: BUD31 (protein, UniProt P41223 1-144)
chain: MPKVKRSRKAPPDGWELIEPTLDELDQKMREAETEPHEGKRKVESLWPIFRIHHQKTRYIFDLFYKRKAISRELYEYCIKEGYADKNLIAKWKKQGYENLCCLRCIQTRDTNFGTNCICRVPKSKLEVGRIIECTHCGCRGCSG
B2: NHP2L1/SNU13 (protein, UniProt P55769 1-128)
chain: MTEADVNPKAYPLADAHLTKKLLDLVQQSCNYKQLRKGANEATKTLNRGISEFIVMAADAEPLEIILHLPLLCEDKNVPYVFVRSKQALGRACGVSRPVIACSVTIKEGSQLKQQIQSIQQSIERLLV
B3: CD2BP2 (protein, UniProt O95400 1-341)
chain: MPKRKVTFQGVGDEEDEDEIIVPKKKLVDPVAGSGGPGSRFKGKHSLDSDEEEDDDDGGSSKYDILASEDVEGQEAATLPSEGGVRITPFNLQEEMEEGHFDADGNYFLNRDAQIRDSWLDNIDWVKIRERPPGQRQASDSEEEDSLGQTSMSAQALLEGLLELLLPRETVAGALRRLGARGGGKGRKGPGQPSSPQRLDRLSGLADQMVARGNLGVYQETRERLAMRLKGLGCQTLGPHNPTPPPSLDMFAEELAEEELETPTPTQRGEAESRGDGLVDVMWEYKWENTGDAELYGPFTSAQMQTWVSEGYFPDGVYCRKLDPPGGQFYNSKRIDFDLYT
B4: PPIL2 (protein, UniProt Q13356 1-520)
chain: MGKRQHQKDKMYITCAEYTHFYGGKKPDLPQTNFRRLPFDHCSLSLQPFVYPVCTPDGIVFDLLNIVPWLKKYGTNPSNGEKLDGRSLIKLNFSKNSEGKYHCPVLFTVFTNNTHIVAVRTTGNVYAYEAVEQLNIKAKNFRDLLTDEPFSRQDIITLQDPTNLDKFNVSNFYHVKNNMKIIDPDEEKAKQDPSYYLKNTNAETRETLQELYKEFKGDEILAATMKAPEKKKVDKLNAAHYSTGKVSASFTSTAMVPETTHEAAAIDEDVLRYQFVKKKGYVRLHTNKGDLNLELHCDLTPKTCENFIRLCKKHYYDGTIFHRSIRNFVIQGGDPTGTGTGGESYWGKPFKDEFRPNLSHTGRGILSMANSGPNSNRSQFFITFRSCAYLDKKHTIFGRVVGGFDVLTAMENVESDPKTDRPKEEIRIDATTVFVDPYEEADAQIAQERKTQLKVAPETKVKSSQPQAGSQGPQTFRQGVGKYINPAATKRAAEEEPSTSATVPMSKKKPSRGFGDFSSW
B5: DDX35 (protein, UniProt Q9H5Z1 1-703)
chain: MAAPVGPVKFWRPGTEGPGVSISEERQSLAENSGTTVVYNPYAALSIEQQRQKLPVFKLRNHILYLIENYQTVVIVGETGCGKSTQIPQYLAEAGWTAEGRVVGVTQPRRVAAVTVAGRVAEERGAVLGHEVGYCIRFDDCTDQLATRIKFLTDGMLVREMMVDPLLTKYSVIMLDEAHERTLYTDIAIGLLKKIQKKRGDLRLIVASATLDADKFRDFFNQNETSDPARDTCVILTVEGRTFPVDIFYLQSPVPDYIKSTVETVVKIHQTEGDGDVLAFLTGQEEVETVVSMLIEQARALARTGMKRHLRVLPMYAGLPSFEQMKVFERVSRSVRKVIVATNVAETSITISGIVYVIDCGFVKLRAYNPRTAIECLVVVPVSQASANQRAGRGGRSRSGKCYRLYTEEAFDKLPQSTVPEMQRSNLAPVILQLKALGIDNVLRFHFMSPPPAQSMVQALELLYALGGLDKDCRLTEPLGMRIAEFPLNPMFAKMLLESGNFGCSQEILSIAAMMQIQNIFVVPPNQKSHAIRVHRKFAVEEGDHLTMLNIYEAFIKHNKDSKWCQEHFLNYKGLVRAATVREQLKKLLVKFQVPRKSSEGDPDLVLRCIVSGFFANAARFHSTGAYRTIRDDHELHIHPASVLYAEKPPRWVIYNEVIQTSKYYMRDVTAIESAWLLELAPHFYQQGTHLSLKAKRAKVQDP
B6: PRPF28/DDX23, Q9BUQ8 1-820 (enzyme)
chain: MAGELADKKDRDASPSKEERKRSRTPDRERDRDRDRKSSPSKDRKRHRSRDRRRGGSRSRSRSRSKSAERERRHKERERDKERDRNKKDRDRDKDGHRRDKDRKRSSLSPGRGKDFKSRKDRDSKKDEEDEHGDKKPKAQPLSLEELLAKKKAEEEAEAKPKFLSKAEREAEALKRRQQEVEERQRMLEEERKKRKQFQDLGRKMLEDPQERERRERRERMERETNGNEDEEGRQKIREEKDKSKELHAIKERYLGGIKKRRRTRHLNDRKFVFEWDASEDTSIDYNPLYKERHQVQLLGRGFIAGIDLKQQKREQSRFYGDLMEKRRTLEEKEQEEARLRKLRKKEAKQRWDDRHWSQKKLDEMTDRDWRIFREDYSITTKGGKIPNPIRSWKDSSLPPHILEVIDKCGYKEPTPIQRQAIPIGLQNRDIIGVAETGSGKTAAFLIPLLVWITTLPKIDRIEESDQGPYAIILAPTRELAQQIEEETIKFGKPLGIRTVAVIGGISREDQGFRLRMGCEIVIATPGRLIDVLENRYLVLSRCTYVVLDEADRMIDMGFEPDVQKILEHMPVSNQKPDTDEAEDPEKMLANFESGKHKYRQTVMFTATMPPAVERLARSYLRRPAVVYIGSAGKPHERVEQKVFLMSESEKRKKLLAILEQGFDPPIIIFVNQKKGCDVLAKSLEKMGYNACTLHGGKGQEQREFALSNLKAGAKDILVATDVAGRGIDIQDVSMVVNYDMAKNIEDYIHRIGRTGRAGKSGVAITFLTKEDSAVFYELKQAILESPVSSCPPELANHPDAQHKPGTILTKKRREETIFA

No constants are given. Whether binding was seen depends on the method and setting. In cells and extracts the contact can be indirect. These calls come from enrichment with a bait or labelling near it, and not all partners need be listed. For part of these data: No binding means not detected with the bait. For part of these data: Sequences can lack the tags named with a protein.

The target in one experiment is T1, TSSC4^V3-Flag, C-terminally 3xFlag-HBH-tagged, stable cell line (human) (UniProt Q9Y5U2).
T1 sequence: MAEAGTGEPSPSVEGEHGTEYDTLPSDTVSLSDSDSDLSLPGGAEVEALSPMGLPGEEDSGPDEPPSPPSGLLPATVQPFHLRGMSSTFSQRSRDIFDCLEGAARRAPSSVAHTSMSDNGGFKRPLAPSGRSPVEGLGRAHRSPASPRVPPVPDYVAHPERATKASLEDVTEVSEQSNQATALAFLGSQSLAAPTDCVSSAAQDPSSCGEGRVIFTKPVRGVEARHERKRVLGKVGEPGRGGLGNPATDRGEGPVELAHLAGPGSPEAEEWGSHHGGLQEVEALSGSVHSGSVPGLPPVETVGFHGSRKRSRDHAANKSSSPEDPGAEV
The experiment in a line: affinity purification with mass spectrometry; Flag-IP (Flag M2 affinity gel) from 500 μg nuclear extract of Flp-In T-REx 293 cells stably expressing 3xFlag-HBH-tagged TSSC4^wt or TSSC4^V3; 10 mM HEPES-NaOH pH 7.3, 150 mM NaCl, 10 mM MgCl2, 10 mM KCl, 0.5 mM EGTA, benzonase; 3xFlag peptide elution; label-free LC-MS against unmodified cells.
Settings: not given
On to B1, for which the binding entry is given as “binds”.
Still for that read-out and setting: for B2 the value was “binds”.
Consider B3, for which the binding entry was “binds”.

A further experiment deals with TSSC4^wt-Flag, C-terminally 3xFlag-HBH-tagged, stable cell line (human) (UniProt Q9Y5U2). The description is as above.
Settings: not given
Take B1: the binding entry is reported as “binds”.
B2: the binding entry is recorded as “no binding”.
Turning to B4, the binding result is “binds”.
B5: the binding entry is “binds”.
The same measure, in the same setting: with B3 the entry was “binds”.

For the next experiment, the target named is TSSC4^wt-Flag, C-terminally 3xFlag-HBH-tagged, stable cell line (human), Q9Y5U2. Described as above. Particulars: remark: other sources report otherwise.
In the case of B6, the binding entry is given as “no binding”.
